Experimental data: patent publication US20140120543A1
Results are given in words; binding and its absence hold for the method and conditions named. In cells and extracts the contact can be indirect. Some binding calls cover weakened binding; strength is not graded here.

Amino acid sequences for entries named in this document (tags omitted). A change or cut given only in a name is not applied to a line headed by its entry.
UniProt Q8IY92: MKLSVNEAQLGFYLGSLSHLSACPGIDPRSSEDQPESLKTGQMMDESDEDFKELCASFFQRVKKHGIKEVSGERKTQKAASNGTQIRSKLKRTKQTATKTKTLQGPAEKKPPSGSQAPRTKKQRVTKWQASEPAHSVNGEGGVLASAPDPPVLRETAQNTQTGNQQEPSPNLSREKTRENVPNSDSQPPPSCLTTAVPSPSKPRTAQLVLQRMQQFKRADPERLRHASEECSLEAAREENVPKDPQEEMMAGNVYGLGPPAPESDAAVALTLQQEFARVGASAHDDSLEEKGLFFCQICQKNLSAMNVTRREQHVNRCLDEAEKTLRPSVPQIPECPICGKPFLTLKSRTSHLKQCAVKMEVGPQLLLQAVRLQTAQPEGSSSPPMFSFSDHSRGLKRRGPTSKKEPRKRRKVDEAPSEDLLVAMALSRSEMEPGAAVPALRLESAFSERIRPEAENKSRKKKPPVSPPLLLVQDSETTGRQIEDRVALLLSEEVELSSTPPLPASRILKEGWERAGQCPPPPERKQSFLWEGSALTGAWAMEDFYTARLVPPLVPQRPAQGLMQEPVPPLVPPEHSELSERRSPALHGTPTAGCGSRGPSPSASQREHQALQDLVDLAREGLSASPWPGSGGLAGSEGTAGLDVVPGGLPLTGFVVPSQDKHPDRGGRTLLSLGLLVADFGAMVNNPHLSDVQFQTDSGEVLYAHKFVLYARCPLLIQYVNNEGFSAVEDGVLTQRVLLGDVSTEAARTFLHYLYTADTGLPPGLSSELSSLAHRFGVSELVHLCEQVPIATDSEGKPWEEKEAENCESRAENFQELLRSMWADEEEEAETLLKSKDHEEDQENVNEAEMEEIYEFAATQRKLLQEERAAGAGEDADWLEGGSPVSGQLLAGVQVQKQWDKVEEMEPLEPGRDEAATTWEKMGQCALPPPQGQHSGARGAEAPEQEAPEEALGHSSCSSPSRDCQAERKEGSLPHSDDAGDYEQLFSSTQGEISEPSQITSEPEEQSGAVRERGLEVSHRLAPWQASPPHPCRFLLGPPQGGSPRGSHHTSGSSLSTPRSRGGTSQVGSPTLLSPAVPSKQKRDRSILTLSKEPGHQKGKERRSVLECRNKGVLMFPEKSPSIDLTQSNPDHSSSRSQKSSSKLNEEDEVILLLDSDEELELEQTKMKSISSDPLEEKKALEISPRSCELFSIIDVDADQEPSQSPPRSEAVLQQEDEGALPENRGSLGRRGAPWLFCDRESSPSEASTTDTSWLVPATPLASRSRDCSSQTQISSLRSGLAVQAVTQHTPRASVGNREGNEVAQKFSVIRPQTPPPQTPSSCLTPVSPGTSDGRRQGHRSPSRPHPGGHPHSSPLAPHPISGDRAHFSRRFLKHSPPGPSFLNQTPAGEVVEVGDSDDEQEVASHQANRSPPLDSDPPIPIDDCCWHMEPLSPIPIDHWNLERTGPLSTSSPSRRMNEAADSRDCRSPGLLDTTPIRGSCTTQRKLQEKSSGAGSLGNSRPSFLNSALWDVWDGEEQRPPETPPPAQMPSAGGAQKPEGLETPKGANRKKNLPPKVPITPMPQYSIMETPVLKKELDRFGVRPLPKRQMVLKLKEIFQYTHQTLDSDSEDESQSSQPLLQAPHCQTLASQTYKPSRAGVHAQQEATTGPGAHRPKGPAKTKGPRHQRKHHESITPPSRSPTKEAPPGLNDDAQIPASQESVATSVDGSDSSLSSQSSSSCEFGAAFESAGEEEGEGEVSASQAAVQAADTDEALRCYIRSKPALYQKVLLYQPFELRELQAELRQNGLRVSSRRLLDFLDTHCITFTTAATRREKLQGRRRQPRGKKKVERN
UniProt P43246: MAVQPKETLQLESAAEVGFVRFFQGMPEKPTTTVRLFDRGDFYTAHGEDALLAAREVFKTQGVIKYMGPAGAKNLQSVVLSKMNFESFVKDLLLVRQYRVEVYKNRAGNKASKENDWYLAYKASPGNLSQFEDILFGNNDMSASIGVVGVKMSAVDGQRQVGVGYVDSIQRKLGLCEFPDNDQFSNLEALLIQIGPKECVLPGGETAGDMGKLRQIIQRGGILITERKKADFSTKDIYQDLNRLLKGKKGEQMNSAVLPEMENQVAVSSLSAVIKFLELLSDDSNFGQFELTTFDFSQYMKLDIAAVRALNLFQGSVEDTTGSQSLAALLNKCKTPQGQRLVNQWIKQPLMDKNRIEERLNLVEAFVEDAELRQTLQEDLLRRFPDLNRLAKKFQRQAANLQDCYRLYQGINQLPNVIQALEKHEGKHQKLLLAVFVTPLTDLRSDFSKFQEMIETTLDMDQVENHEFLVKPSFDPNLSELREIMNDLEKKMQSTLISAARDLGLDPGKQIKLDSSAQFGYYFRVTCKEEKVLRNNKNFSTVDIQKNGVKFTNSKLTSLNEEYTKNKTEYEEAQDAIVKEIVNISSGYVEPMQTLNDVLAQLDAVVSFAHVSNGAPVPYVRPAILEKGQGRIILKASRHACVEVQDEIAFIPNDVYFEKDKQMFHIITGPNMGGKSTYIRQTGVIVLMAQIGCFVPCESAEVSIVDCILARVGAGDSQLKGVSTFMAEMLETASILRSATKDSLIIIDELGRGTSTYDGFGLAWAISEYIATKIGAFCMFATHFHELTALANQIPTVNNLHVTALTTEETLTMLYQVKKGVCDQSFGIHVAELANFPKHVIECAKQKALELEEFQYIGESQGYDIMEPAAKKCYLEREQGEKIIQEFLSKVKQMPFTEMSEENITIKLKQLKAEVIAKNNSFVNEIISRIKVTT

Columns and labels:
SLX4 protein (human) [1] = target: SLX4 protein (human) (UniProt Q8IY92); experiment: proximity ligation assay (Duolink) in A549 cells
[2] = target: DNA mismatch repair protein MSH2 (MutS protein homolog 2) (human) (UniProt P43246); experiment: proximity ligation assay (Duolink) in A549 cells
SLX4 protein (human) [3] = target: SLX4 protein (human) (UniProt Q8IY92); experiment: proximity ligation assay (Duolink), ERCC1 detected with FL297 antibody
[4] = target: DNA mismatch repair protein MSH2 (MutS protein homolog 2) (human) (UniProt P43246); experiment: as above

binding (SLX4 protein (human) [1]): binds
binding [2]: binds
binding (SLX4 protein (human) [3]): binds
binding [4]: binds
B1: ERCC1-202 isoform (isoform 202 of the ERCC1 protein) (protein)
chain: MDPGKDKEGVPQPSGPPARKKFVIPLDEDEVPPGVAKPLFRSTQSLPTVDTSAQAAPQTYAEYAISQPLEGAGATCPTGSEPLAGETPNQALKPGAKSNSIIVSPRQRGNPVLKFVRNVPWEFGDVIPDYVLGQSTCALFLSLRYHNLHPDYIHGRLQSLGKNFALRVLLVQVDVKDPQQALKELAKMCILADCTLILAWSPEEAGRYLETYKAYEQKPADLLMEKLEQDFVSRVTECLTTVKSVNKTDSQTLLTTFGSLEQLIAASREDLALCPGLGPQKARRLFDVLHEPFLKVP
